Test results as given in PMC6762143.
These are yes or no findings as the source states them, for the method shown.

The chains behind the UniProt entries cited, without tags or fusion partners. Where a name states a change or a piece, a line headed by the entry shows the natural chain unless it says otherwise.
UniProt P00560: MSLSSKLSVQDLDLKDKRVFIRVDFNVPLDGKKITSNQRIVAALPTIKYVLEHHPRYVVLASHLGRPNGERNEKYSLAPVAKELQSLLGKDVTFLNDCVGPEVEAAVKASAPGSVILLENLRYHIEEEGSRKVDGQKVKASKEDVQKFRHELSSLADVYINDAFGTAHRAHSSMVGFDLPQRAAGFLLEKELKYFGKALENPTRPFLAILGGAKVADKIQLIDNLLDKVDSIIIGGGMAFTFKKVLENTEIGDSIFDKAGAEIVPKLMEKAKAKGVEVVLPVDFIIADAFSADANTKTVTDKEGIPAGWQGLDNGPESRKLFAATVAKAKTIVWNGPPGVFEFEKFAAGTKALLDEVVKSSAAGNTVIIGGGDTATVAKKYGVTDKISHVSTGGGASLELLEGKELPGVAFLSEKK
UniProt P0DMV8: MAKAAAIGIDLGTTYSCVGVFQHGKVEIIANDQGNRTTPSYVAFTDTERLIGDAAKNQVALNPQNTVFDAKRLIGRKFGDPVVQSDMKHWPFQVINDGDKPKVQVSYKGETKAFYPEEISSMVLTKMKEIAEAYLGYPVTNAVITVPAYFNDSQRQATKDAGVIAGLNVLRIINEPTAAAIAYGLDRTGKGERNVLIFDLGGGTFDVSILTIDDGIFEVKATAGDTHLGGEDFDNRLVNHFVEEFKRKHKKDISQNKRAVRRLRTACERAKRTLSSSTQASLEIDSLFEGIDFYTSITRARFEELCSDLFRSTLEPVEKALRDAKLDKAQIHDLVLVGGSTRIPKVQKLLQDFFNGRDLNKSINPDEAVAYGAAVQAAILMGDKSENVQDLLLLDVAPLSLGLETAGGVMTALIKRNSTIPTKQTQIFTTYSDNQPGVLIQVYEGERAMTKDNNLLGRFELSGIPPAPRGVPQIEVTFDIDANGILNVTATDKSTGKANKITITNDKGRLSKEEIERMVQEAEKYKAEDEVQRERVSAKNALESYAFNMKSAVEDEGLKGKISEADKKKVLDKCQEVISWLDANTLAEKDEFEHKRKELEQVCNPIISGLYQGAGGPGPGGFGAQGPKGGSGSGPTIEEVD

Columns and labels:
[1] = biological target: ePGK3 (PGK mutant labeled by mEGFP at the N-terminus) (yeast) (UniProt P00560); assay: FRET or BRET; in vitro thermal scan in a fluorimeter; 1:1 mHsp70:ePGK with 300 mg/mL Ficoll70, ATP and Hsp40, without cell lysate; both purified
[2] = biological target: ePGK3 (PGK mutant labeled by mEGFP at the N-terminus) (yeast) (UniProt P00560); assay: FRET or BRET; in vitro thermal scan in a fluorimeter; 1:1 mHsp70:ePGK with 300 mg/mL Ficoll70, 0.6 mg/mL U-2 OS cell lysate, ATP and Hsp40; both purified
[3] = biological target: ePGK0 (PGK mutant labeled by mEGFP at the N-terminus) (yeast) (UniProt P00560); assay: FRET or BRET; in vitro thermal scan in a fluorimeter; 1:1 (1 μM mHsp70 with 1 μM ePGK) or 1:5 mHsp70:ePGK; K1 buffer, 10 mM DTT, 2 mM ATP, ATP regenerating mix; no crowder; both purified
[4] = biological target: ePGK3 (PGK mutant labeled by mEGFP at the N-terminus) (yeast) (UniProt P00560); assay: as above
[5] = biological target: ePGK0 (PGK mutant labeled by mEGFP at the N-terminus) (yeast) (UniProt P00560); assay: FRET or BRET; in vitro thermal scan in a fluorimeter; 5:1, 5 μM mHsp70 or mHsp70K71M with 1 μM ePGK; K1 buffer, 10 mM DTT, 2 mM ATP, ATP regenerating mix; also with 10 μM Hsp40 and with 10 μM Hsp40 and 300 mg/mL Ficoll70; both purified
[6] = biological target: ePGK3 (PGK mutant labeled by mEGFP at the N-terminus) (yeast) (UniProt P00560); assay: as above

Substance | binding [1] | binding [2] | binding [3] | binding [4] | binding [5] | binding [6]
mHsp70 (Hsp70 labeled by the red acceptor mCherry at the C-terminus) (from UniProt P0DMV8 1-641) | no binding | no binding | no binding (tested: 1 μM ePGK with 1 μM mHsp70 (1:1)) | no binding (tested: 1 μM ePGK with 1 μM mHsp70 (1:1)) | no binding | no binding
mHsp70K71M (ATPase activity-deficient K71M mutant of mHsp70) (from UniProt P0DMV8 1-641) |  |  |  |  |  | no binding
